Paper PMC11151565
Results are given in words; binding and its absence hold for the method and conditions named. For part of these data: A result given as binding can be weak or reduced; the word gives no strength. For part of these data: In cells and extracts the contact can be indirect. For part of these data: Where a sequence is shown, tags or fusion partners need not be part of it.

Legend:
[1] = target: OsFTL9 (Flowering Locus T-like 9), full-length coding sequence in pGBKT7 (O. sativa L. ssp. japonica (Nipponbare)); test: two-hybrid; FTL9 or FTL10 in pGBKT7, FD1 or GF14c in pGADT7; yeast strain AH109; growth on SD/-Leu/-Trp/-His/-Ade after about 4 days at 30 °C
[2] = target: OsFTL10 (Flowering Locus T-like 10), full-length coding sequence in pGBKT7 (O. sativa L. ssp. japonica (Nipponbare)); test: as above
[3] = target: OsFTL10, full-length coding sequence fused to an enhanced YFP fragment (BiFC) (O. sativa (rice)); test: split reporter; BiFC with N- and C-terminal enhanced YFP fragments, transiently co-expressed in N. benthamiana leaves; YFP read by confocal microscopy after 2-3 days; empty N-YFP and C-YFP vectors as negative controls

binding [1]	binding [2]	binding [3]	Binder
no binding	binds		OsGF14c, full-length coding sequence in pGADT7 (protein, UniProt Q6ZKC0 1-256) MSREENVYMAKLAEQAERYEEMVEYMEKVAKTVDVEELTVEERNLLSVAYKNVIGARRASWRIVSSIEQKEEGRGNEEHVTLIKEYRGKIEAELSKICDGILKLLDSHLVPSSTAAESKVFYLKMKGDYHRYLAEFKTGAERKEAAESTMVAYKAAQDIALADLAPTHPIRLGLALNFSVFYYEILNSPDKACNLAKQAFDEAISELDTLGEESYKDSTLIMQLLRDNLTLWTSDLTEDGGDEVKEASKGDACEGQ
		binds	OsGF14c, full-length coding sequence fused to an enhanced YFP fragment (BiFC) (protein, UniProt Q6ZKC0 1-256) MSREENVYMAKLAEQAERYEEMVEYMEKVAKTVDVEELTVEERNLLSVAYKNVIGARRASWRIVSSIEQKEEGRGNEEHVTLIKEYRGKIEAELSKICDGILKLLDSHLVPSSTAAESKVFYLKMKGDYHRYLAEFKTGAERKEAAESTMVAYKAAQDIALADLAPTHPIRLGLALNFSVFYYEILNSPDKACNLAKQAFDEAISELDTLGEESYKDSTLIMQLLRDNLTLWTSDLTEDGGDEVKEASKGDACEGQ
